From the supplement of paper PMC6078165
Values are relative to the signal before dosing, not to a vehicle control; the signal also falls without drug.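 Fibroblast labels name human fibroblasts: mostly primary ones from tissues such as uterus (C12385, HUF), lung (H6013), bone (Hs27A), adrenal (HADF) and skin (WS1), plus mammary HMF and breast cancer-associated Hs343T. The cancer cells are basal-like or mesenchymal-like triple-negative breast cancer lines. The paper calls a changed response a hit when it shifts by more than 3x the replicate standard deviation. The tissue of the other fibroblasts is not given here.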

Tested on: BT20
Assay: relative JC-1 red fluorescence (viability) vs pre-drug, coculture with fibroblast (fraction); higher = more viable cancer cells
Procedure: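 JC-1 labelled TNBC cells cocultured 1:1 (1,500 cells each) with CellTrace Violet stained primary or stromal fibroblasts in 384-well plates in FluoroBrite medium, treated with one of 42 anticancer drugs at 0.1, 1, 10 or 100 uM. JC-1 red fluorescence (mitochondrial integrity in cancer cells only) was read by plate reader every 8 h for 72 h. Values are normalised to each well's pre-drug value. The stock of one drug was tenfold lower, so its dose labels may be too high.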

CC(=O)O[C@H]1C(=O)[C@@]2(C)[C@H]([C@H](OC(=O)c3ccccc3)[C@]3(O)C[C@H](OC(=O)[C@H](O)[C@@H](NC(=O)c4ccccc4)c4ccccc4)C(C)=C1C3(C)C)[C@]1(OC(C)=O)CO[C@@H]1C[C@@H]2O [Paclitaxel]
relative JC-1 red fluorescence
Conditions	8 h	16 h	24 h	32 h	40 h	48 h	56 h	64 h	72 h
0.1 µM, coculture fibroblast: C12385	0.94	0.842	0.809	0.747	0.687	0.668	0.64	0.638	0.65
0.1 µM, coculture fibroblast: H6013	0.898	0.92	0.91	0.887	0.848	0.832	0.818	0.808	0.804
0.1 µM, coculture fibroblast: H6019	0.861	0.768	0.7382	0.68	0.64	0.613	0.567	0.535	0.518
0.1 µM, coculture fibroblast: H6076	0.943	0.875	0.7883	0.7558	0.722	0.708	0.717	0.727	0.724
0.1 µM, coculture fibroblast: H6231	0.848	0.938	0.754	0.658	0.584	0.517	0.465	0.445	0.422
0.1 µM, coculture fibroblast: HADF	0.843	0.904	0.81	0.754	0.682	0.627	0.607	0.574	0.545
0.1 µM, coculture fibroblast: HCFa	0.93	0.797	0.734	0.668	0.596	0.552	0.503	0.474	0.435
0.1 µM, coculture fibroblast: HCPF	0.807	0.93	0.802	0.745	0.697	0.656	0.601	0.613	0.58
0.1 µM, coculture fibroblast: HHSteC	0.9582	0.8503	0.832	0.744	0.688	0.668	0.634	0.602	0.571
0.1 µM, coculture fibroblast: HMF	0.971	0.861	0.755	0.685	0.617	0.557	0.531	0.515	0.5007
0.1 µM, coculture fibroblast: HPFa	0.976	0.941	0.966	0.884	0.874	0.835	0.829	0.82	0.788
0.1 µM, coculture fibroblast: HUF	0.914	0.796	0.7211	0.6258	0.566	0.51	0.461	0.424	0.403
0.1 µM, coculture fibroblast: Hs5	0.959	0.906	0.846	0.805	0.766	0.728	0.714	0.687	0.675
0.1 µM, coculture fibroblast: Hs27A	0.706	0.86	0.885	0.8426	0.821	0.819	0.824	0.808	0.7884
0.1 µM, coculture fibroblast: Hs343T	0.962	0.825	0.736	0.681	0.607	0.5372	0.489	0.478	0.452
0.1 µM, coculture fibroblast: WS1	0.8916	0.7836	0.735	0.662	0.584	0.552	0.5004	0.479	0.4778
1 µM, coculture fibroblast: C12385	0.898	0.819	0.771	0.72	0.667	0.652	0.612	0.605	0.612
1 µM, coculture fibroblast: H6013	0.892	0.909	0.834	0.751	0.809	0.822	0.733	0.71	0.726
1 µM, coculture fibroblast: H6019	0.877	0.7948	0.814	0.752	0.713	0.691	0.664	0.644	0.626
1 µM, coculture fibroblast: H6076	0.97	0.888	0.818	0.7839	0.756	0.7117	0.697	0.699	0.693
1 µM, coculture fibroblast: H6231	0.884	0.896	0.765	0.684	0.602	0.553	0.51	0.498	0.475
1 µM, coculture fibroblast: HADF	0.9947	0.857	0.813	0.755	0.723	0.678	0.651	0.654	0.62
1 µM, coculture fibroblast: HCFa	0.934	0.84	0.805	0.7324	0.669	0.63	0.59	0.562	0.518
1 µM, coculture fibroblast: HCPF	0.948	0.819	0.754	0.7007	0.643	0.608	0.583	0.56	0.529
1 µM, coculture fibroblast: HHSteC	0.9147	0.8735	0.9136	0.819	0.787	0.768	0.76	0.745	0.715
1 µM, coculture fibroblast: HMF	0.966	0.836	0.76	0.688	0.625	0.555	0.514	0.484	0.47
1 µM, coculture fibroblast: HPFa	0.963	0.879	0.886	0.789	0.755	0.698	0.68	0.67	0.639
1 µM, coculture fibroblast: HUF	0.91	0.802	0.75	0.6575	0.5978	0.524	0.48	0.44	0.424
1 µM, coculture fibroblast: Hs5	0.946	0.9	0.845	0.792	0.761	0.729	0.69	0.684	0.666
1 µM, coculture fibroblast: Hs27A	0.823	0.796	0.95	0.953	0.928	0.914	0.955	0.929	0.897
1 µM, coculture fibroblast: Hs343T	0.92	0.857	0.749	0.658	0.586	0.513	0.469	0.443	0.421
1 µM, coculture fibroblast: WS1	0.883	0.767	0.745	0.671	0.624	0.594	0.576	0.572	0.58
10 µM, coculture fibroblast: C12385	0.932	0.878	0.845	0.784	0.746	0.726	0.683	0.646	0.622
10 µM, coculture fibroblast: H6013	0.992	0.9219	0.8892	0.8413	0.797	0.78	0.795	0.779	0.759
10 µM, coculture fibroblast: H6019	0.919	0.854	0.866	0.828	0.796	0.7785	0.761	0.741	0.731
10 µM, coculture fibroblast: H6076	0.889	0.9186	0.8511	0.818	0.775	0.7453	0.741	0.748	0.748
10 µM, coculture fibroblast: H6231	0.764	0.945	0.845	0.759	0.702	0.632	0.603	0.564	0.532
10 µM, coculture fibroblast: HADF	0.935	0.918	0.837	0.792	0.744	0.689	0.67	0.645	0.621
10 µM, coculture fibroblast: HCFa	0.903	0.879	0.817	0.749	0.675	0.622	0.578	0.551	0.525
10 µM, coculture fibroblast: HCPF	0.828	0.941	0.8266	0.761	0.693	0.623	0.578	0.555	0.51
10 µM, coculture fibroblast: HHSteC	0.868	0.8985	0.869	0.793	0.71	0.658	0.59	0.546	0.5
10 µM, coculture fibroblast: HMF	0.847	0.939	0.7968	0.716	0.61	0.526	0.454	0.41	0.371
10 µM, coculture fibroblast: HPFa	0.842	0.929	0.928	0.842	0.812	0.752	0.728	0.695	0.664
10 µM, coculture fibroblast: HUF	0.966	0.896	0.87	0.798	0.735	0.673	0.637	0.605	0.586
10 µM, coculture fibroblast: Hs5	0.8839	0.874	0.863	0.802	0.7317	0.675	0.615	0.578	0.563
10 µM, coculture fibroblast: Hs27A	0.922	0.738	0.962	0.9576	0.921	0.906	0.896	0.859	0.831
10 µM, coculture fibroblast: Hs343T	0.991	0.882	0.753	0.671	0.574	0.498	0.398	0.354	0.296
10 µM, coculture fibroblast: WS1	0.9185	0.8346	0.7753	0.699	0.633	0.594	0.546	0.506	0.487
